This passage reports binding results from PMC4605318.

By UniProt entry, the sequences of proteins in these tests, tags left out.
UniProt P42694: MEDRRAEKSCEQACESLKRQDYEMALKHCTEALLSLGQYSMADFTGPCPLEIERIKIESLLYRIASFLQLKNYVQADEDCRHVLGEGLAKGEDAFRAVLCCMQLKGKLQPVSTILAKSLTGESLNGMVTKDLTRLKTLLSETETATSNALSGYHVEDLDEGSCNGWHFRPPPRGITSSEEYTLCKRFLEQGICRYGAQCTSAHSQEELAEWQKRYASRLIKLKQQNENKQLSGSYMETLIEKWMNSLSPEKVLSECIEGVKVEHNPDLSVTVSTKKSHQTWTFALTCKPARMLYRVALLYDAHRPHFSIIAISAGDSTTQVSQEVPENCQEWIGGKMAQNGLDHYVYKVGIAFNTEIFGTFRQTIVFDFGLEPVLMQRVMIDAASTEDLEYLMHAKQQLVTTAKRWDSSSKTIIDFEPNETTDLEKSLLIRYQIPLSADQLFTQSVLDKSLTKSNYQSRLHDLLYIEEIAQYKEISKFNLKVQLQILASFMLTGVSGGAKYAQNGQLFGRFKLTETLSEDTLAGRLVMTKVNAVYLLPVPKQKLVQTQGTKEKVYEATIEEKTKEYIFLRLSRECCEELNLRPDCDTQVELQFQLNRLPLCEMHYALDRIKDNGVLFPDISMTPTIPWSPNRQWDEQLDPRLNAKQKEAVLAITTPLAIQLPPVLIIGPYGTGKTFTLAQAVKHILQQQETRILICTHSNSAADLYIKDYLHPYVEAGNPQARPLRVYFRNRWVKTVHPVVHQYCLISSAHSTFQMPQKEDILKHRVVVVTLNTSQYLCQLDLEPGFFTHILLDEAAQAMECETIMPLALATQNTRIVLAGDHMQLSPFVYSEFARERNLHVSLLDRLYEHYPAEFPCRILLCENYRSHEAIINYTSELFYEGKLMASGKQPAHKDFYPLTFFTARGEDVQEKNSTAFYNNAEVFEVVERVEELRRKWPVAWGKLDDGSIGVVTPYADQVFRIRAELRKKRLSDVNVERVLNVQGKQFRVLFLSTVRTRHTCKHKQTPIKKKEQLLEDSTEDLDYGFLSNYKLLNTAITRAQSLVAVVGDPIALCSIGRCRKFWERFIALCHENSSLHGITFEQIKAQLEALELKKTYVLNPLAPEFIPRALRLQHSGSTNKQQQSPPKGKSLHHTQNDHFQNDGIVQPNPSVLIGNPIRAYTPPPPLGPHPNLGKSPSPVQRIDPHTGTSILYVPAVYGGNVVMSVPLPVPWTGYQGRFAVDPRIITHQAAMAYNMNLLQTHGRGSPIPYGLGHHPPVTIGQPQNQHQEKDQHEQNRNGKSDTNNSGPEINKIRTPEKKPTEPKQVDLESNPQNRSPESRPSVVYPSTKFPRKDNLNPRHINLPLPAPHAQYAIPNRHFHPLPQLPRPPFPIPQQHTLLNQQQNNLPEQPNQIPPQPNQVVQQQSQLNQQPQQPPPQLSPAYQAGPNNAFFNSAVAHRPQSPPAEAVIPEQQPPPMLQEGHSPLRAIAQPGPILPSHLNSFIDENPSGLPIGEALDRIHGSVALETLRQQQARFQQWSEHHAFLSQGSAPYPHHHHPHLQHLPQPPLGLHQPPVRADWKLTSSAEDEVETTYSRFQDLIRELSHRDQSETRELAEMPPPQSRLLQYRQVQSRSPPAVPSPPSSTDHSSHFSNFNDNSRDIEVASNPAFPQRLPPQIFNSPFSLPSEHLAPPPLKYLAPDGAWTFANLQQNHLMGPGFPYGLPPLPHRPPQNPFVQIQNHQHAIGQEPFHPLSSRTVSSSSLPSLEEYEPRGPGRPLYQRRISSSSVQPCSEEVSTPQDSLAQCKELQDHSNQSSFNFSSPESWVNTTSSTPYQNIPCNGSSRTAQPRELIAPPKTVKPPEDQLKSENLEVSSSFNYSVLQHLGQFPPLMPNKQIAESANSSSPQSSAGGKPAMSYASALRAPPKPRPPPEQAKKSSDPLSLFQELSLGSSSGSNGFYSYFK

These are yes or no findings as the source states them, for the method shown. Binding seen in cells or lysates may run through a third protein. A yes stands for co-enrichment or nearness to the bait. Other partners may have been found. Where a sequence is shown, tags or fusion partners need not be part of it.

This experiment has as its target T1, FLAG-HA-SMYD3 (SET and MYND domain containing protein 3) (human) (UniProt Q9H7B4).
T1 sequence: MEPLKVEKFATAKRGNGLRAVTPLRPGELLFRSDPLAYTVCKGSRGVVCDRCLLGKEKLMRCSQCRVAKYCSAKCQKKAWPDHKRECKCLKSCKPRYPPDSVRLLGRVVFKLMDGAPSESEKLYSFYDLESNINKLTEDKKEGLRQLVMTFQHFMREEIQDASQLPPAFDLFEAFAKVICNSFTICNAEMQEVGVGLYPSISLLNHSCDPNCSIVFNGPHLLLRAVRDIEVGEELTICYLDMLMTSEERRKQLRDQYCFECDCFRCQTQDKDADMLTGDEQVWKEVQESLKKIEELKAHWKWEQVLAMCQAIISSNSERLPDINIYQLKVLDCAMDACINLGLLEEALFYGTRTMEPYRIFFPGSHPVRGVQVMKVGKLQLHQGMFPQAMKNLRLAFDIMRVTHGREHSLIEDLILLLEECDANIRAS
Briefly: affinity purification with mass spectrometry; FLAG-HA-SMYD3 stably expressed in HCT116; nuclear extracts; sequential immunoprecipitation with anti-FLAG M2 and anti-HA antibodies in 20 mM Tris-HCl pH 7.3, 300 mM KCl, 0.2 mM EDTA, 20% glycerol, 0.1% Nonidet P-40; major bands of a 4–20% SDS-PAGE gel analysed by LC-MS/MS.

On to HSP90A (from UniProt P07900 1-732), for which the binding result was “binds”.

With “RNA helicase HELZ (from UniProt P42694 1-1942)”, the binding entry is on record as “binds”.
